Laboratory results reported in PubChem BioAssay AID292 (DTP/NCI, 2004).
The list is a part of this screen's results and no random one: it gathers tests that were run many times, whatever their T/C, doses with no T/C, and many T/C values between a quarter and a half above the control. Further doses and runs are listed elsewhere. T/C: endpoint of the treated group in % of that of the vehicle group. Some entries give survivors of the animals treated and no T/C: the source files T/C as zero there, which appears to mark a toxic dose or a test without result, not a measured value. Some doses without a T/C left all or most animals alive at the check, yet need not have been tolerated: survival well below the control is almost never listed, so the zero probably covers shortened survival too. Survivors were counted at the toxicity check, usually on the fifth day, unless a day is given; later deaths do not show. Schedules are NCI's codes, taken here to give the interval after Q, in days (D) or hours (H), and the number of doses after X. Some entries hold several experiments; the results are listed from low to high. For survival time, this PubChem deposit counts one and a half times the control or more as active, and values a quarter to a half above the control carry no call in these data; other NCI protocols may use other cut-offs. Additions like (4×) count equal records among those shown. Some T/C values carry the count of animals alive at the toxicity check (mostly the fifth day); where none is given, no animal had died by that day.

Test system: B6C3F1 mice, ip Sarcoma M5076, median survival T/C
Experiment: NCI In Vivo Anticancer Drug Screen. Data for tumor model Sarcoma M5076 (intraperitoneal) in B6C3F1 mice
Conditions: T/C endpoint: median survival time, higher T/C = longer survival
Outline: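 Tumour cells were transplanted into mice, compound or vehicle was given, survival of both groups was followed, and the treated figure was expressed over the control figure.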

[1] = dose: 50.0 mg/kg/injection, schedule: Q04DX004 (ip), vehicle: saline with Tween-80
[2] = dose: 100.0 mg/kg/injection, schedule: Q04DX004 (ip), vehicle: saline with Tween-80
[3] = dose: 200.0 mg/kg/injection, schedule: Q04DX004 (ip), vehicle: saline with Tween-80
[4] = dose: 400.0 mg/kg/injection, schedule: Q04DX004 (ip), vehicle: saline with Tween-80
[5] = dose: 100.0 mg/kg/injection, schedule: Q04DX004 (ip), vehicle: Klucel (hydroxypropylcellulose) (HPC)
[6] = dose: 200.0 mg/kg/injection, schedule: Q04DX004 (ip), vehicle: Klucel (hydroxypropylcellulose) (HPC)
[7] = dose: 400.0 mg/kg/injection, schedule: Q04DX004 (ip), vehicle: Klucel (hydroxypropylcellulose) (HPC)
[8] = dose: 800.0 mg/kg/injection, schedule: Q04DX004 (ip), vehicle: Klucel (hydroxypropylcellulose) (HPC)
[9] = dose: 600.0 mg/kg/injection, schedule: Q04DX004 (ip), vehicle: saline with Tween-80
[10] = dose: 250.0 mg/kg/injection, schedule: Q04DX004 (ip), vehicle: saline with Tween-80
[11] = dose: 800.0 mg/kg/injection, schedule: Q04DX004 (ip), vehicle: DMSO
[12] = dose: 800.0 mg/kg/injection, schedule: Q04DX004 (ip), vehicle: saline with Tween-80
[13] = dose: 128.0 micrograms/kg/injection, schedule: Q04DX004 (ip), vehicle: water

In the case of `c1ccc2c(c1)oc1cc3c(cc12)n1nnnc1c1cccn31`, the survivor count (dose: 25.0 mg/kg/injection, schedule: Q04DX004 (ip), vehicle: saline with Tween-80) is reported as 10 of 10 on day 14, the survivor count [1] is reported as 10 of 10 on day 14 and the survivor count [2] is reported as 10 of 10 on day 14. The survivor count [3] was 10 of 10 on day 14 and the survivor count [4] was 9 of 10 on day 14.

In the case of `CCCCCCCCCCCC1NC(=S)NC(=O)C1C#N` (stereo not drawn), the survivor count [5] is reported as 10 of 10 on day 14, the survivor count [6] is reported as 10 of 10 on day 14 and the survivor count [7] is reported as 8 of 10 on day 14. For the same compound, the survivor count [8] was 0 of 10 on day 14.

`NC(=O)c1oc([N+](=O)[O-])c(-c2ccccc2)c1-c1ccccc1` was tested, and the survivor count [9] was 10 of 10 on day 14.

`O=C(O)CC(Sc1ccc(Cl)cc1)C(=O)Nc1ccccc1` (stereo not drawn) was tested, and the survivor count [10] was 9 of 10 on day 14.

With `CCCCNc1ccc2nnc(C)n2n1` the survivor count (dose: 400.0 mg/kg/injection, schedule: Q04DX004 (ip), vehicle: DMSO) was 0 of 10 on day 14 and 4 of 10 on day 14 and the survivor count [11] was 0 of 10 on day 14.

`COCCCn1c(C(Cl)(Cl)Cl)nn2c(=O)c3ccccc3nc2c1=O` was tested, and the survivor count [12] was 10 of 10 on day 14.

`COc1ccc(-c2cc(C(=O)Nc3cc(C(F)(F)F)cc(C(F)(F)F)c3)c3ccccc3n2)cc1` was tested, and the survivor count [11] was 0 of 10 on day 14.

With `CC1=CC(C)(C)N=C2SC(COc3ccccc3)=NN12` the survivor count [12] was 8 of 10 on day 14.

With `CCC(/C=C/C1OC(=O)C=CC1C)=C\C(C)C/C=C/C(C)=C/C(C)C(=O)C(C)C(O)C(C)C/C(C)=C/C(=O)O` (stereo not drawn) the T/C (dose: 25.0 micrograms/kg/injection, schedule: Q04DX004 (ip), vehicle: saline + alcohol) was 131 and 149 % of control, the T/C (dose: 50.0 micrograms/kg/injection, schedule: Q04DX004 (ip), vehicle: saline + alcohol) was 127 % of control and the T/C (dose: 100.0 micrograms/kg/injection, schedule: Q04DX004 (ip), vehicle: saline) was 132 % of control. For the same compound, the T/C (dose: 200.0 micrograms/kg/injection, schedule: Q04DX004 (ip), vehicle: saline + alcohol) was 148 % of control, the T/C (dose: 200.0 micrograms/kg/injection, schedule: Q04DX004 (ip), vehicle: saline) was 142 % of control [9 of 10 alive on day 14] and the T/C (dose: 400.0 micrograms/kg/injection, schedule: Q04DX004 (ip), vehicle: saline) was 133 % of control (2×). The T/C (dose: 800.0 micrograms/kg/injection, schedule: Q04DX004 (ip), vehicle: other) was 148 % of control, the T/C (dose: 800.0 micrograms/kg/injection, schedule: Q04DX004 (ip), vehicle: saline) was 147 % of control and the survivor count (dose: 1600.0 micrograms/kg/injection, schedule: Q04DX004 (sc), vehicle: other) was 1 of 10 on day 14.

In the case of `Cc1nn(-c2ccccn2)c2ncnc(N)c12`, the survivor count (dose: 300.0 mg/kg/injection, schedule: Q04DX004 (ip), vehicle: saline with Tween-80) is reported as 3 of 10 on day 14 and the survivor count [9] is reported as 0 of 10 on day 14.

In the case of `C/C(=N\NC(=S)N1CCN(c2ccccn2)CC1)c1ccccn1`, the survivor count [5] is reported as 0 of 10 on day 14 and the survivor count [6] is reported as 0 of 10 on day 14.

`N#CC1C(=O)NC(=O)C(C#N)C1c1ccc(Cl)cc1Cl` (stereo not drawn) was tested, and the survivor count [8] was 0 of 10.

In the case of `Clc1ccc(CC(Cn2ccnc2)c2ccccc2Cl)cc1` (stereo not drawn), the survivor count [10] is reported as 7 of 10 on day 14.

For `O=C(Nc1ccc([N+](=O)[O-])cc1)C1C(=O)C(=O)N(c2ccc([N+](=O)[O-])cc2)C1=O` (stereo not drawn), the survivor count (dose: 400.0 mg/kg/injection, schedule: Q04DX004 (ip), vehicle: Klucel + Tween-80) was 2 of 10 on day 14 and the survivor count (dose: 800.0 mg/kg/injection, schedule: Q04DX004 (ip), vehicle: Klucel + Tween-80) was 0 of 10 on day 14.

In the case of `COc1cc([C@@H]2c3cc4c(cc3[C@@H](OC3OC5COC(C)OC5C(O)C3O)[C@H]3COC(=O)[C@H]23)OCO4)cc(OC)c1O` (stereo partly drawn), the T/C (dose: 4.0 mg/kg/injection, schedule: Q04DX004 (ip), vehicle: saline) is reported as 126 and 141 % of control, the T/C (dose: 8.0 mg/kg/injection, schedule: Q04DX004 (ip), vehicle: saline) is reported as 131 % of control and the T/C (dose: 16.0 mg/kg/injection, schedule: Q04DX004 (ip), vehicle: saline) is reported as 142 % of control [9 of 10 alive on day 14]. For the same compound, the survivor count (dose: 64.0 mg/kg/injection, schedule: Q04DX004 (ip), vehicle: saline) was 1 of 10 on day 14 and 5 of 10 on day 14, the survivor count (dose: 64.0 mg/kg/injection, schedule: Q04DX005 (ip), vehicle: saline) was 5 of 8 on day 17 and the survivor count (dose: 128.0 mg/kg/injection, schedule: Q04DX004 (ip), vehicle: saline) was 0 of 10 on day 14.

`CCCC1CCC(=C2C(=O)CCC2=O)O1` (stereo not drawn) was tested, and the survivor count [3] was 6 of 10 on day 14 and the survivor count [4] was 3 of 10 on day 14.

For `COc1ccc(NC(=O)C2C(=O)C(=O)N(c3ccc(OC)cc3OC)C2=O)c(OC)c1` (stereo not drawn), the survivor count [7] was 5 of 10 on day 14 and the survivor count [8] was 0 of 10 on day 14.

For `CCNC(=O)[B-][N+](C)(C)C`, the survivor count [12] was 0 of 10 on day 14.

In the case of `COC(COC(=O)N1CCN(C=O)CC1)C1=C(N2CC2)C(=O)C(C)=C(N2CC2)C1=O` (stereo not drawn), the T/C (dose: 2.16 mg/kg/injection, schedule: Q04DX004 (ip), vehicle: saline) is reported as 126 % of control, the survivor count (dose: 16.67 mg/kg/injection, schedule: Q04DX004 (ip), vehicle: saline) is reported as 0 of 10 on day 14 and the survivor count (dose: 24.0 mg/kg/injection, schedule: Q04DX004 (ip), vehicle: saline) is reported as 1 of 10 on day 14.

With `C=C1COC(O)(C2OCOC(C3CC(=O)NC(=O)C3)C2O)C1C` (stereo not drawn) the T/C (dose: 8.0 micrograms/kg/injection, schedule: Q04DX004 (ip), vehicle: water) was 129 % of control, the T/C (dose: 16.0 micrograms/kg/injection, schedule: Q04DX004 (ip), vehicle: water) was 126 and 142 % of control and the T/C (dose: 23.0 micrograms/kg/injection, schedule: Q04DX004 (ip), vehicle: water) was 125 % of control. For the same compound, the T/C (dose: 64.0 micrograms/kg/injection, schedule: Q04DX004 (ip), vehicle: water) was 100 [8 of 10 alive on day 14], 102, 165, 172, 179 % of control, the T/C (dose: 106.6 micrograms/kg/injection, schedule: Q04DX004 (ip), vehicle: water) was 130 % of control and the survivor count (dose: 107.0 micrograms/kg/injection, schedule: Q04DX004 (ip), vehicle: water) was 6 of 10 on day 14. For the same compound, the T/C [13] was 125 [9 of 10 alive] and 126 % of control, the survivor count [13] was 6 of 10 on day 14 and the survivor count (dose: 178.0 micrograms/kg/injection, schedule: Q04DX004 (ip), vehicle: water) was 0 of 10 on day 14. The survivor count (dose: 256.0 micrograms/kg/injection, schedule: Q04DX004 (ip), vehicle: water) was 0 of 10 on day 14.

With `COc1cc2c(c3c1c(=O)c1ccccc1n3C)C=CC(C)(C)O2` the T/C [1] was 136 % of control, the survivor count [2] was 5 of 10 on day 14 and the survivor count (dose: 166.67 mg/kg/injection, schedule: Q04DX004 (ip), vehicle: saline with Tween-80) was 1 of 10 on day 14. The survivor count [3] was 7 of 10 on day 14.

For `Cc1ccoc1`, the survivor count (dose: 266.6 mg/kg/injection, schedule: Q03HX012 (ip), vehicle: saline with Tween-80) was 2 of 10 on day 14.

For `CC(=O)N1CCCN(C)/C1=N/[N+](=O)[O-]`, the survivor count (dose: 600.0 mg/kg/injection, schedule: Q04DX004 (ip), vehicle: saline) was 0 of 10 on day 14.
